According to PubChem BioAssay AID2685 (National Center for Advancing Translational Sciences (NCATS), 2010):
The list shows a part of the results. Further columns of the screen follow, without active or inactive calls. Most of these compounds were active or inconclusive in the main read-out, so they are no random draw. The note in brackets gives the kind of curve behind each potency; many fits are weak.

Assay: qHTS Assay for Lipid Storage Modulators in Drosophila S3 Cells;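 on cell number change: cells counted by Cell Tracker Red CMTPX staining in the red channel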
Settings: BODIPY lipid droplet fluorescence, 18-24 h; for cell number change: measured here: cell count max response, cells fed with added oleic acid
In short: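 Drosophila S3 cells got compounds at several concentrations plus oleic acid (400 uM solution). Laser-scanning cytometry with 488 nm excitation read lipid droplets at 500-530 nm and cells at 575-640 nm. Percent activity was relative to 20 uM Triacsin C.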

[1] = measured here: cell number channel AC50, cells fed with added oleic acid
[2] = measured here: lipid fluorescence (Fed channel) AC50, cells fed with added oleic acid

| SMILES | cell number change [%] | AC50 [1] | AC50 [2] |
| --- | --- | --- | --- |
| O=C(Cn1nnc2ccccc21)Nc1ccc(Cl)cn1 | 80.5 | 23.1 µM [rising, partial curve] | – |
| CC1(C)Cc2c(ccc3ccccc23)/C(=C/C(=O)N2CCCCC2)N1 | -11.4 | 3.66 µM [rising, single point] | – |
| CCOc1ccc(NC(=NCc2ccc3c(c2)OCO3)SC2CC(=O)N(c3ccc(C(=O)O)cc3)C2=O)cc1 (stereo not given) | 4.55 | – | 0.0058 µM [rising, full curve, poor fit] |
| COc1ccc(OC)c(S(=O)(=O)N2CCCC(C(=O)N3CCCCCC3)C2)c1 (stereo not given) | – | – | 29.1 µM [falling, single point] |
| CCc1nnc(NC(=O)CCN2C(=O)c3ccccc3C2=O)s1 | 17.4 | 0.146 µM [rising, full curve, poor fit] | – |
| Cc1cc(NC(=O)NCc2ccccc2)c(=O)n(Cc2ccccc2F)c1 | 1.69 | – | 20.6 µM [falling, single point] |
| Cc1cc2oc(=O)cc(CN3CCN(S(=O)(=O)c4cccs4)CC3)c2cc1C | 33.3 | 29.1 µM [rising, single point] | – |
| CCOc1ccc(CCNC(=O)COC(=O)CNC(=O)c2ccc(Br)o2)cc1OCC | -10.4 | – | – |
| NC(=O)C1CCCN1S(=O)(=O)c1ccc2ccccc2c1 (stereo not given) | -20.2 | – | 29.1 µM [falling, single point] |
| CCOC(=O)C1CCCN(C(=S)Nc2cc(C)cc(C)c2)C1 (stereo not given) | 35.2 | – | – |
| COc1cc(/C=N\Nc2nc3ccccc3[nH]2)cc(OC)c1OC | -15.6 | – | – |
| Cc1[nH]c2ccccc2c1C(=O)C(=O)N1CCOCC1 | 37.6 | 18.4 µM [rising, partial curve, poor fit] | – |
| O=C(Nc1cccnc1Cl)c1cc(-c2cccc(O)c2)on1 | 34.9 | 9.2 µM [rising, partial curve, poor fit] | – |
| Cc1ccc(NC(=O)CCCC(=O)OC(C)C(=O)c2ccccc2)cc1 (stereo not given) | 3.95 | – | – |
| Cc1ccc(/C=N/N2C(=S)SC(C)(C)C2N(O)C(=O)Nc2ccc([N+](=O)[O-])cc2)cc1 (stereo not given) | -20.5 | – | 14.6 µM [falling, partial curve, poor fit] |
| CN(C)C=NC(=O)c1cc(C(=O)c2ccc(F)cc2)c[nH]1 | -41.7 | 0.231 µM [falling, full curve] | 0.231 µM [falling, full curve] |
| O=C(CCCN1C(=O)/C(=C/c2cccc(Br)c2)SC1=S)Nc1cccnc1 | -14.8 | – | – |
| CC(=O)N1CCCc2cc(S(=O)(=O)CCC(=O)N3CCN(c4cccc(C)c4)C(C)C3)ccc21 (stereo not given) | 12.4 | 0.0231 µM [rising, full curve, poor fit] | – |
| CCn1cc(CN2CCCC(C(=O)Nc3cccc(-n4cccn4)c3)C2)c(C)n1 (stereo not given) | 6.93 | 6.51 µM [rising, single point] | – |
| CC(C(=O)N1CCOCC1)N1C(=O)c2cccc3cccc(c23)C1=O (stereo not given) | -21.7 | 2.06 µM [falling, single point] | 2.59 µM [falling, partial curve] |

A different layout for part of the listing above:
SMILES,cell number change [%],AC50 [1],AC50 [2]
O=C(CCCN1C(=O)/C(=C/c2cccc(Br)c2)SC1=S)Nc1cccnc1,-14.8,–,–
CC(=O)N1CCCc2cc(S(=O)(=O)CCC(=O)N3CCN(c4cccc(C)c4)C(C)C3)ccc21 (stereo not given),12.4,"0.0231 µM [rising, full curve, poor fit]",–

Additional records follow:

| SMILES | cell number change [%] | AC50 [1] | AC50 [2] |
| --- | --- | --- | --- |
| Cc1cc(NC(=O)CSc2nnc(-c3ccccc3C)n2C)no1 | 6.08 | – | 29.1 µM [falling, single point] |
| Cc1c(N2C(=O)C3C4C=CC(C5CC45)C3C2=O)c(=O)n(-c2ccccc2)n1C (stereo not given) | 28.3 | – | 4.11 µM [falling, single point] |
| COc1ccc(S(=O)(=O)N2CCN(C(=O)c3ccc(C)o3)CC2)cc1 | 3.81 | – | – |
| C=CCn1c(COc2ccc(OC)cc2)nnc1SC(C)C(=O)NC1CC1 (stereo not given) | -15.2 | – | – |
| CC1(C)Cc2c(sc(NC(=O)C(=O)NCCCN3CCOCC3)c2C#N)CO1 | -5.01 | – | 0.58 µM [rising, single point] |
| Cc1ccc(-n2c(SCn3nnc4ccccc4c3=O)nnc2-c2cccnc2)c(C)c1 | -25 | – | 0.0184 µM [rising, full curve, poor fit] |
| COc1ccc(CNC(=O)[C@@H](C)NC(=O)C2CCN(C(=O)[C@@H](N)CCSC)CC2)cc1 | 28.1 | – | 29.1 µM [rising, single point] |
| Cc1cccc(NC(=O)c2ccc3nc(N4CCOCC4)sc3c2)c1C | -25.4 | – | 6.51 µM [rising, single point] |
| Cc1cc(C)c(C(=O)COC(=O)c2cccnc2Cl)c(C)c1 | -25.2 | – | – |
| O=C(COc1ccc(Cl)cc1)NCc1nnc2c3ccccc3c(-c3ccccc3)nn12 | -25.5 | – | 29.1 µM [falling, single point] |
| Nc1ccc(S(=O)(=O)Nc2nccc(/C=C/c3ccc(Cl)cc3)n2)cc1 | 66.7 | 14.6 µM [rising, partial curve, poor fit] | 29.1 µM [rising, single point] |
| CC(/C=C/c1ccco1)=N\NC(=O)c1cccnc1 | 9.25 | – | – |
| Fc1ccc2[nH]c3c(NCc4ccccc4)ncnc3c2c1 | -64.6 | 18.4 µM [falling, partial curve] | 13 µM [falling, partial curve, poor fit] |
| Cc1cccc(NC(=O)CSc2nnc(-c3ccncc3)n2CC2CCCO2)c1 (stereo not given) | 21.7 | – | – |
| CCOC(=O)c1nc(C)n(-c2ccc([N+](=O)[O-])cc2)n1 | 11.3 | – | 0.517 µM [falling, full curve, poor fit] |
| Cc1cccc(NS(=O)(=O)c2cccc(C(=O)N3CCC3)c2)c1 | -4.38 | – | 0.13 µM [rising, full curve, poor fit] |
| COC(=O)c1ccc2c(=O)n(C3CCCCC3)c(SCC#N)nc2c1 | 17.7 | – | 0.58 µM [rising, single point] |
| Cc1c(Br)cc(C(=O)N2CCN(CCO)CC2)c(C)c1C | -12.9 | – | 14.6 µM [falling, partial curve, poor fit] |
| Cn1c(=O)n(Cc2ccc(Cl)cc2)c2ccccc21 | 37.4 | 7.31 µM [rising, partial curve, poor fit] | 4.11 µM [rising, single point] |
| CNc1nc(Cl)nc(Nc2ccccc2)n1 | 23.5 | 2.59 µM [rising, single point] | 5.8 µM [rising, single point] |
